# Primary screen of a compound library

By UniProt entry, the sequences of proteins in these tests, tags left out.
UniProt I6X8D2, whole entry: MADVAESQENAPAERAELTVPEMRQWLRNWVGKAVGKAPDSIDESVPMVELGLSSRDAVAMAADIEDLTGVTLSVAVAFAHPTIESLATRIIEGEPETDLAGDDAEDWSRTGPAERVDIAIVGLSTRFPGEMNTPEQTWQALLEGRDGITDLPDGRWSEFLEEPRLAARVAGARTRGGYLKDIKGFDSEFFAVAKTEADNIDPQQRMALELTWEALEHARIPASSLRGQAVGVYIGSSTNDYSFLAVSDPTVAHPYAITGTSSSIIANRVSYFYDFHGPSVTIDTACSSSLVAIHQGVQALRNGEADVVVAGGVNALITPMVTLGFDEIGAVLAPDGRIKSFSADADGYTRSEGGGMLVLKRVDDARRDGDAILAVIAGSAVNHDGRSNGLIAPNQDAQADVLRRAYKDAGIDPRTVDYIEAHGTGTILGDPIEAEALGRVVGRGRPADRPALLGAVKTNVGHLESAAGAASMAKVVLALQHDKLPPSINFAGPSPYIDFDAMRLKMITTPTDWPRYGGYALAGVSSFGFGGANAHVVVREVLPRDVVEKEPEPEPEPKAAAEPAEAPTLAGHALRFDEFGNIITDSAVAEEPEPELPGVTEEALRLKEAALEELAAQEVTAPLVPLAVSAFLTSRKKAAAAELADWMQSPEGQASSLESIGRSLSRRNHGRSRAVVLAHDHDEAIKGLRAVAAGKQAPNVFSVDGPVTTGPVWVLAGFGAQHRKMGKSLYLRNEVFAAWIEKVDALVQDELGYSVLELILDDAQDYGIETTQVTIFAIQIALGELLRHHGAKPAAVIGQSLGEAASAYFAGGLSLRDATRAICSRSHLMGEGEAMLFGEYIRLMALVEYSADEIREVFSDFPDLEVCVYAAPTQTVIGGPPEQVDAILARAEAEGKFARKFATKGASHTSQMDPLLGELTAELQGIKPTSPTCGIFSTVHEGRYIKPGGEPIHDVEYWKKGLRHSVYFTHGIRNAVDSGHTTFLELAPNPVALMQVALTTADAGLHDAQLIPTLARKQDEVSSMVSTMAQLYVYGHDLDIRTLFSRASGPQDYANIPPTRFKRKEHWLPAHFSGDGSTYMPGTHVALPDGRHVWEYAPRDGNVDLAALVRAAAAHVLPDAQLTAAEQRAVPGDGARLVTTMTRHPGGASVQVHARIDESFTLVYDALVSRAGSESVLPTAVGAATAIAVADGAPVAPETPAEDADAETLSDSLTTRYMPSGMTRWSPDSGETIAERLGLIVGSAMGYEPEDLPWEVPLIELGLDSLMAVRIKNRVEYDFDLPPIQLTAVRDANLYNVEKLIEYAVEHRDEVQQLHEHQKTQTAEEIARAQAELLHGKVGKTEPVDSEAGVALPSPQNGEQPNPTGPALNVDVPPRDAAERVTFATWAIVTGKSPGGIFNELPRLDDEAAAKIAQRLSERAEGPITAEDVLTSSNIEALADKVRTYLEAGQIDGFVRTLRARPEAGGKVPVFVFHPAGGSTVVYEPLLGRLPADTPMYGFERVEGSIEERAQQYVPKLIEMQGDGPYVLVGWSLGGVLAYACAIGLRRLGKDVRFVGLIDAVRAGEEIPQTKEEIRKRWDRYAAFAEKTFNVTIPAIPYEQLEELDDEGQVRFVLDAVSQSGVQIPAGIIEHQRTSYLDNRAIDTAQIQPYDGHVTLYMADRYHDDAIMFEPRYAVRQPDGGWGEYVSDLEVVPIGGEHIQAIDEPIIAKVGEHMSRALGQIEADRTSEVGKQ
UniProt P9WNZ1, whole entry: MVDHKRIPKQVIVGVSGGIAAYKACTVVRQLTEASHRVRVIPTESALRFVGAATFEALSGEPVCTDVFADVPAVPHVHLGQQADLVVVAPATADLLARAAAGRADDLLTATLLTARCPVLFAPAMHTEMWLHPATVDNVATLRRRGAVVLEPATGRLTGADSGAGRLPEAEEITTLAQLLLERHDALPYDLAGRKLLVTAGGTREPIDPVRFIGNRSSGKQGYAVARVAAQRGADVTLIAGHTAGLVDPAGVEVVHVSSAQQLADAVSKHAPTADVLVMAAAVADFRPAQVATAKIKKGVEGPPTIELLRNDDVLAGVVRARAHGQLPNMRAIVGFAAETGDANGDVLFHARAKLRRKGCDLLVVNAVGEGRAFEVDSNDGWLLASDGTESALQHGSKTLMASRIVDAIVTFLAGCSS
UniProt P9WPC5, whole entry: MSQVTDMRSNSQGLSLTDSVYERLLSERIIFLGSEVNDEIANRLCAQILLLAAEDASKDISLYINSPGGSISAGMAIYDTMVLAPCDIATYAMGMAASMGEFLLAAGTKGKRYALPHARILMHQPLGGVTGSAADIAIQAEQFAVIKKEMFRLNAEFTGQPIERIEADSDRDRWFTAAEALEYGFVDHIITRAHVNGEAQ
UniProt P9WPC3, whole entry partner: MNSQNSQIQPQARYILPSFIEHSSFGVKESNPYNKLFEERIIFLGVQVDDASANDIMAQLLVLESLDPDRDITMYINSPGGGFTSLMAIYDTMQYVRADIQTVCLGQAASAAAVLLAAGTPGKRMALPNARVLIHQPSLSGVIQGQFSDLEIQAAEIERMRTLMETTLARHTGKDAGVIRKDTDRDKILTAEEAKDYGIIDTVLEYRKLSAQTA
UniProt P9WFT3, whole entry: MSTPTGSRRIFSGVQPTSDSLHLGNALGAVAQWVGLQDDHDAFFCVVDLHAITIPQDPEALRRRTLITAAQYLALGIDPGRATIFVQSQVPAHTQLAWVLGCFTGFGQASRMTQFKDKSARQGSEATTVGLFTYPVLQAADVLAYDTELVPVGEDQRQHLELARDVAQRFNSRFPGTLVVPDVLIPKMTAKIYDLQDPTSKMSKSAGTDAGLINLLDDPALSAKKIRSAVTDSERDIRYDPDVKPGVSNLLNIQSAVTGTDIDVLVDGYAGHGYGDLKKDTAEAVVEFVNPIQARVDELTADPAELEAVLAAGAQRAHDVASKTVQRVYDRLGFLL

Source: ChEMBL document CHEMBL3988442, “University of Dundee, Small-Polar-MMV Screening Library” (2021).

Pks13 thioesterase: 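Enzyme assay of the thioesterase domain of polyketide synthase 13; the read-out is not stated. Target: Polyketide synthase Pks13, Mycobacterium tuberculosis (UniProt I6X8D2). Concentration: 30 µM. Higher reads as stronger inhibition (inferred from which compounds were picked for retests). Size under these conditions: about 67,000 compounds, about 300 of them at 50% or above in at least one test.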
Toxoplasma: 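Assay of Toxoplasma gondii numbers, read through their beta-galactosidase reporter with a colour substrate. Compounds at 10 µM. The record gives no direction; the compounds picked for IC50 retests had high values, so higher reads as fewer parasites. Of about 67,000 compounds tested this way, about 260 (0.38%) reached 50% or more in at least one test.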
CoaBC: 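Enzyme assay of CoaBC with a phosphate dye (Biomol Green) read at 650 nm. Target: Coenzyme A biosynthesis protein CoaBC, Mycobacterium tuberculosis (UniProt P9WNZ1). Tested at 30 µM. Higher reads as stronger inhibition, judged from the few compounds that gave an IC50. Most strong results did not repeat in a second test. About 67,000 compounds were tested under these conditions; 0.06% (about 40) showed 50% or more at least once.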
ClpP1P2: 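ClpP1P2, Mycobacterium tuberculosis (UniProt P9WPC5 and UniProt P9WPC3). Protease assay of ClpP1P2, read by the AMC dye that it sets free. Tested at 50 µM. Direction is inferred from only a few compounds that gave an IC50; most scored high, so higher reads as stronger inhibition. Most other retested compounds had strongly negative values. Of about 69,000 compounds tested this way, about 10 (0.015%) reached 50% or more in at least one test.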
Leishmania in macrophages: 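Cell assay of Leishmania donovani living inside macrophages; the read-out is not stated. Tested at 30 µM. Direction is inferred from retests: higher values go with stronger inhibition. Size under these conditions: about 69,000 compounds, about 1,000 of them at 50% or above in at least one test.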
MtTrpRS: 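Tryptophan-tRNA ligase, Mycobacterium tuberculosis (UniProt P9WFT3). Enzyme assay of tryptophanyl-tRNA synthetase; the read-out is not stated. Concentration: 10 µM. Direction is not recorded; retested compounds ran higher, which suggests that high means inhibition. Of about 65,000 compounds tested this way, about 64 (0.098%) reached 50% or more in at least one test.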

Results are given as percent effect.
The controls that fix the scale are not given in the record; negative values are as filed.
The compounds are a random part of those screened.
Two or more numbers in one place are separate tests of the same structure; such repeats can differ widely.
A dash means the value is not listed here; it may have been measured.

| # | compound | Pks13 thioesterase | Toxoplasma | CoaBC | ClpP1P2 | Leishmania in macrophages | MtTrpRS |
|---|---|---|---|---|---|---|---|
| 1 | `Cc1nc(-c2ccncc2)ncc1C(C)NC(=O)CN1CCOC1=O` (stereo not shown) | -0.07821 | 17.67 | 1.948 | 1.18 | -0.7336 | -4.831 |
| 2 | `Cc1nn(-c2ccccc2)nc1C(=O)N1CCCC(n2cccn2)C1` (stereo not shown) | -25.24 | 14.05 | 1.567 | -24.61 | 2.417 | -0.298 |
| 3 | `Cc1cc(CC(=O)N2CCCC2c2nc(C(C)C)no2)on1` (stereo not shown) | -1.53 | 8.607 | 8.017 | -6.672 | -4.283 | 5.498 |
| 4 | `CC(C)NC(=O)c1nc2c(s1)CCCN2Cc1ccccc1` | -34.36 | -11.8 | -20 | -19.83 | 15.22 | -2.468 |
| 5 | `Cc1ccc(C)c(OCCN(C)C(=O)C2CCCN2C(N)=O)c1C` (stereo not shown) | -5.018 | 6.323 | -3.204 | -5.827 | 26.27 | -1.147 |
| 6 | `O=C(N1CCCC1)N1CCC2(CC(=O)N(c3ccc4c(c3)OCO4)C2)C1` (stereo not shown) | -22.31 | -5.38 | 8.402 | -1.261 | 2.309 | -3.66 |
| 7 | `Cn1nc(-c2cccs2)cc1[C@H]1CN2CC[C@H]1C[C@@H]2CN` | -34.59 | - | -39.88 | -2.829 | - | 2.67 |
| 8 | `COCC(=O)N1CCC2(CCC2NS(=O)(=O)c2ccccc2)CC1` (stereo not shown) | 5.011 | -5.556 | - | 20.39 | -6.273 | 0.1079 |
| 9 | `CN1CCCCC1c1cncc(N2CCC(O)CC2)n1` (stereo not shown) | 36.33 | -12.7 | -0.5256 | -2.532 | 17.45 | -10.5 |
| 10 | `CC(Cn1ccnc1)NC(=O)NCCc1cccs1` (stereo not shown) | -29.05 | -48.13 | 5.371 | -50.2 | 21.1 | -1.976 |
| 11 | `CN(CCN1CCOCC1)S(=O)(=O)CC1CCCC1` | -5.827 | -5.33 | -1.282 | -18.22 | -10.79 | -6.781 |
| 12 | `[H][C@@]12C[C@H](C(=O)N3CCOCC3)[C@@]([H])(CN(C(=O)NCC3CCCCC3)C1)O2` | - | 9.89 | - | - | 12.52 | - |
| 13 | `CC(C)NC(=O)COc1nc(C(C)C)no1` | -23.11 | -1.847 | 7.036 | -16.71 | -11.78 | -1.78 |
| 14 | `COCCCN1CCC(N(Cc2noc(C)n2)C(C)=O)C1` (stereo not shown) | -13.25 | 6.331 | 0.3831 | -20.97 | 26.03 | -4.769 |
| 15 | `CNC(=O)C1CCN(c2ncc3c(n2)CCN3c2ccccc2)C1` (stereo not shown) | -2.372 | 2.411 | 9.709 | -3.806 | -17.27 | -6.118 |
| 16 | `O=C(NCc1ccc(Cl)cc1)C1=NOC2(CCNC2)C1` (stereo not shown) | -3.06 | - | -33.19 | 4.869 | - | 1.569 |
| 17 | `O=C(Nc1nnn[nH]1)c1ccc(I)c(F)c1` | -8.097 | -13.69 | -6.11 | 4.517 | -4.929 | 9.019 |
| 18 | `O=C(c1ccncn1)N1CCC[C@]2(C[C@H](OCC3CC3)CO2)C1` | -6.78 | -10.64 | 5 | -10.8 | 21.76 | -2.189 |
| 19 | `CCCc1noc(C2CC(=O)N(CCN(C)C)C2)n1` (stereo not shown) | -12.62 | -8.232 | 0 | -13.17 | 24.39 | -3.585 |
| 20 | `COCCN1C[C@@H](C)[C@@]2(COCCN(C(=O)c3cccc(C)n3)C2)C1` | -4.568 | - | -1.29 | -20.83 | - | 0.4647 |
| 21 | `CCNc1ncc2c(n1)CN(c1ccc(Cl)cc1)C2=O` | -13.28 | 65.79 | -0.4619 | 0.8468 | -2.092 | -2.461 |
| 22 | `Cc1cc(=O)[nH]c(-n2nc(-c3cccs3)cc2N)n1` | -10.34 | 1.585 | 8.946 | 6.37 | -7.901 | -0.08937 |
| 23 | `Cn1cc(C2(C)CN(Cc3ccc(O)c(Cl)c3)CCO2)cn1` (stereo not shown) | -20.67 | -1.654 | 2.848 | -5.389 | 14.7 | 0.3894 |
| 24 | `O=C(O)C(F)(F)F.[H][C@@]12COC[C@]1(CNC(=O)c1ccccc1)CN(Cc1cnn(C)c1)C2` | - | -1.63 | - | - | 23.09 | - |
| 25 | `CCCS(=O)(=O)NC1CCc2c(ccc(=O)n2CC2CC2)C1` (stereo not shown) | 12.96 | 0.7589 | 1.36 | 3.098 | -7.136 | -0.6823 |
| 26 | `CC1=N[C@@]2(CC[C@@H]3CN(Cc4ccccc4C)C[C@@H]32)C(=O)N1CC1CC1` | -31.58 | - | 7.529 | 21.58 | - | 0.3317 |
| 27 | `CCOCCCC(=O)N(C)C(c1cccc(F)c1)c1ccccn1` (stereo not shown) | -5.593 | 10.92 | 2.867 | 0.867 | 8.452 | -3.626 |
| 28 | `Cc1nn(CC(C)C)c(N(C)C)c1CNCCS(C)(=O)=O` | -9.425 | -3.338 | -0.4963 | -3.54 | 13.52 | 1.206 |
| 29 | `CC(C)NC(=O)CS(=O)(=O)Cc1cc(Cl)c2c(c1)OCCO2` | 6.353 | - | -7.455 | 4.764 | 28.51 | 0.7081 |
| 30 | `NC(=O)C1CCN(Cc2ccc(S(=O)(=O)N3CCCC3)o2)CC1` | -36.8 | -4.487 | 5.353 | 0.1014 | -1.399 | -3.665 |
| 31 | `COCC(=O)N1CCC(c2n[nH]c3nccnc23)CC1` | 14.48 | -12.44 | 2.67 | -13.28 | -5.738 & 8.01 | - |
| 32 | `Cc1ccc(CN(C)C(=O)CN2CCCCC2Cn2cncn2)cc1` (stereo not shown) | 15.2 | -1.529 | 13.52 | -3.322 | -11.23 | 4.009 |
| 33 | `COc1cc2nc(C)n(CC(=O)NCCCO)c(=O)c2cc1OC` | -18.01 | -5.321 | -4.835 | -13.92 | -15.38 & 14.72 | -3.595 |
| 34 | `CC(=O)N1CCN(C(=O)CCc2cc(Br)cs2)CC1` | -27.79 | 1.22 | 4.545 | 4.011 | 2.422 | 0.08842 |
| 35 | `COc1c(C2CCCN2C(=O)c2ccc3c(c2)OCO3)c(C)nn1C` (stereo not shown) | 0.9791 | -19.45 | 0.8772 | -6.791 | 27.03 | -8.003 |
| 36 | `Cc1cc(C(O)CCNS(=O)(=O)c2ccc(Cl)s2)c(C)o1` (stereo not shown) | 21.61 | 13.46 | -3.69 | -8.063 | 10.87 | -0.8909 |
| 37 | `Cc1cnn(CC2CN(c3ccc(C#N)cn3)CCO2)c1` (stereo not shown) | -9.012 | 19.15 | 1.149 | -17.89 | 10.38 | 12.69 |
| 38 | `Cc1noc([C@@H]2C[C@H]3OCC[C@H]3N(Cc3cc(C)c(C)o3)C2)n1` | -15.98 | - | 2.03 | 1.951 | - | -4.856 |
| 39 | `Cc1cc(C)n(CC2CCCN2C(=O)CCCNc2ncccn2)n1` (stereo not shown) | -9.105 | -16.8 | 2.128 | 2.984 | 42.85 | 1.73 |
| 40 | `[H][C@@]12CCN(C(=O)CCc3csc(N)n3)C[C@@]([H])(CC1)N2C` | - | -4.723 | - | - | 17.86 | - |
| 41 | `NC(=O)C1CCCN1Cc1cccc(NC(=O)c2ccsc2)c1` (stereo not shown) | -8.076 | 3.744 | 7.143 | -3.419 | 16.66 | 4.44 |
| 42 | `COCC(=O)N1CCC2(CC(=O)N(c3cccc(F)c3)C2)C1` (stereo not shown) | -26.43 | 1.924 | -4.206 | -8.523 | 2.024 | -3.144 |
| 43 | `CCC(=O)N1CCCCC1c1nc(O)c2c(n1)CN(C(C)=O)CC2` (stereo not shown) | 11.58 | 7.252 | -2.871 | -5.066 | 40.95 | -5.99 |
| 44 | `CN1C[C@@H](N)C[C@H]1c1nc(-c2ccc3c(c2)OCO3)no1` | -12.87 | -5.131 | -17.09 | -3.131 | 17.33 | 9.535 |
| 45 | `CN(C)c1ccc(CC2CCN(c3cnccn3)CC2)nn1` | 10.11 | - | 9.264 | -9.792 | 20.42 | -2.106 |
| 46 | `CS(=O)(=O)NC1CCCN(c2ccc(C#N)cn2)C1` (stereo not shown) | -50.51 | -2.544 | -1.24 | 7.638 | -19.93 | -5.126 |
| 47 | `COCCN1CCN(Cc2ccoc2)Cc2cccnc21` | -3.363 | 1.706 | 3.043 | 5.266 | 25.67 | -0.6875 |
| 48 | `COCCCNC(=O)NCc1ccc(C)cc1` | -15.73 | -2.643 | 3.133 | 0.717 | -3.959 | 0.09747 |
| 49 | `CNC(=O)C1(CCCc2cnccn2)CCN1CCc1ccccc1` (stereo not shown) | 7.006 | 14.59 | 6.833 | 1.229 | 38.64 | -5.39 |
| 50 | `Cc1ccc(CN(C(=O)C(C)NC(N)=O)C2CC2)cc1C` (stereo not shown) | 29.64 | 1.893 | - | 0.6765 | 1.658 | 6.295 |
| 51 | `COc1ccccc1NC(=O)NCCCn1nc2ccccn2c1=O` | -0.1817 | 4.995 | -1.979 | -31.12 | -7.959 | -3.955 |

The last 3 entries again:

| compound | Pks13 thioesterase | Toxoplasma | CoaBC | ClpP1P2 | Leishmania in macrophages | MtTrpRS |
|---|---|---|---|---|---|---|
| `CNC(=O)C1(CCCc2cnccn2)CCN1CCc1ccccc1` (stereo not shown) | 7.006 | 14.59 | 6.833 | 1.229 | 38.64 | -5.39 |
| `Cc1ccc(CN(C(=O)C(C)NC(N)=O)C2CC2)cc1C` (stereo not shown) | 29.64 | 1.893 | - | 0.6765 | 1.658 | 6.295 |
| `COc1ccccc1NC(=O)NCCCn1nc2ccccn2c1=O` | -0.1817 | 4.995 | -1.979 | -31.12 | -7.959 | -3.955 |